Source: patent publication US20140370521A1, “IDENTIFICATION OF TWO NOVEL BIOMARKERS FOR NIEMANN-PICK DISEASE TYPE C” (The USA , as Represented by the Secretary, Department of …, priority 2011, published 2014)

System: Npc1-/- mouse liver
Assay: Liver gene expression microarray, Npc1-/- versus control mice (Affymetrix Mouse GeneChip 1.0 ST)
Details: negative = lower in Npc1−/−
[1] = head prints "weeks" (column between 7 weeks and 11 weeks)

Substance | FC (fold-change of expression between Npc1−/− and control mice) (5 weeks of age) | FC (fold-change of expression between Npc1−/− and control mice) (7 weeks of age) | FC (fold-change of expression between Npc1−/− and control mice) (11 weeks of age) | FC (fold-change of expression between Npc1−/− and control mice) [1] | FC (fold-change of expression between Npc1−/− and control mice) (3 weeks of age) | FC (fold-change of expression between Npc1−/− and control mice) (1 week of age)
Adm (YRQSMNQGSRSNGCRFGTCTFQKLAHQIYQLTDKDKDGMAPRNKISPQGY; UniProt P97297 95-144, looked up) | 1.40 | 1.56 | 2.39 | 1.52 |  | 
Colla1 | 1.50 | 1.88 |  | 1.40 | 1.49 | 
Colla2 | 1.39 | 1.59 |  | 1.45 | 1.40 | 
Ctsb | 1.68 | 2.15 | 2.58 | 2.17 | 1.49 | 
Ctsl | 1.62 | 1.42 | 2.43 | 2.02 |  | 1.33
Defb1 (DQYKCLQHGGFCLRSSCPSNTKLQGTCKPDKPNCCKS; UniProt P56386 33-69, looked up) | 1.85 | 2.04 | 4.47 | 1.85 | 1.91 | 
Igf1 | −1.43 | −1.65 | −1.92 | −1.45 |  | 
Leap2 (MTPFWRGVSLRPIGASCRDDSECITRLCRKRRCSLSVAQE; UniProt Q91V13 37-76, looked up) |  | −1.59 | −3.14 | −1.36 | −2.06 | 
Mbl1 | −1.54 | −1.59 | −2.85 | −1.52 |  | 
Mmp2 | 1.32 | 1.51 | 1.57 | 1.34 |  | 
Mmp12 | 13.58 | 23.91 | 19.18 | 26.27 | 7.13 | 
Pdgfa | 1.30 | 1.89 | 1.39 | 1.48 | 1.32 | 
Plau | 2.01 | 2.78 | 2.47 | 2.27 | 1.52 | 
Plaur | 1.94 | 3.13 | 5.45 | 3.67 | 1.46 | 
Sparcl1 | 1.53 | 2.24 | 2.82 | 2.15 | 1.63 | 
Svep1 | 1.36 | 1.68 | 1.61 | 1.57 | 1.35 | 
Tfrc | 1.69 | 2.12 | 3.41 | 2.06 | 1.53 | 
Thbs1 | 1.42 | 1.67 | 1.73 | 1.69 | 1.43 | 
Thbs2 | 1.34 | 1.42 | 1.63 | 1.55 |  | 

The expression values are mRNA levels of the gene; the protein chain is shown to identify it.
